Results from PMC7206140.
No constants are given. Whether binding was seen depends on the method and setting. Binding seen in cells or lysates may run through a third protein. Some binding calls cover weakened binding; strength is not graded here. For part of these data: Tags and fused reporters may be left off the sequences shown. Blank lines part the entries; values can stand above or below the molecule they belong to.

Key:
[1] = molecular target: T1, endogenous NT5DC2 (human (endogenous in PLC/RLF/5)) (UniProt Q9H857); assay: co-IP; endogenous proteins in PLC/RLF/5 lysate; anti-NT5DC2 or anti-EGFR antibody with protein A beads, IgG as control; western blot
T1 sequence: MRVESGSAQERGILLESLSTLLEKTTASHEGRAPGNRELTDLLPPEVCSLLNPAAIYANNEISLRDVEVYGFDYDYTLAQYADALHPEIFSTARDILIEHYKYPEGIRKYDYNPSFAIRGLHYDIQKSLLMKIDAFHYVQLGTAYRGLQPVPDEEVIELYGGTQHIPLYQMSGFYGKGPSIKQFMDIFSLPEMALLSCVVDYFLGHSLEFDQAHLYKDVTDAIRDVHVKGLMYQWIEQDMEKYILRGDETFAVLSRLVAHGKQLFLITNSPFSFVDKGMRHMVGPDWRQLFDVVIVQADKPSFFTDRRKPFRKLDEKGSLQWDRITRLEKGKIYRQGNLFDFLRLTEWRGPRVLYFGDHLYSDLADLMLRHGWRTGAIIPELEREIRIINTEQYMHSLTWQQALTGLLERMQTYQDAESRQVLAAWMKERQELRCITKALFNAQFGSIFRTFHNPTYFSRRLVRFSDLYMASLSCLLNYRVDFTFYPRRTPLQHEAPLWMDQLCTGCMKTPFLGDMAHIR

[2] = molecular target: T2, GFP-tagged NT5DC2 (5'-Nucleotidase domain containing 2) (human) (UniProt Q9H857); assay: co-IP; anti-GFP beads (GFP-Trap agarose) on lysates of MHCC97H or PLC/RLF/5 cells expressing GFP-tagged NT5DC2, its truncations or a control vector; western blot for EGFR
T2 sequence: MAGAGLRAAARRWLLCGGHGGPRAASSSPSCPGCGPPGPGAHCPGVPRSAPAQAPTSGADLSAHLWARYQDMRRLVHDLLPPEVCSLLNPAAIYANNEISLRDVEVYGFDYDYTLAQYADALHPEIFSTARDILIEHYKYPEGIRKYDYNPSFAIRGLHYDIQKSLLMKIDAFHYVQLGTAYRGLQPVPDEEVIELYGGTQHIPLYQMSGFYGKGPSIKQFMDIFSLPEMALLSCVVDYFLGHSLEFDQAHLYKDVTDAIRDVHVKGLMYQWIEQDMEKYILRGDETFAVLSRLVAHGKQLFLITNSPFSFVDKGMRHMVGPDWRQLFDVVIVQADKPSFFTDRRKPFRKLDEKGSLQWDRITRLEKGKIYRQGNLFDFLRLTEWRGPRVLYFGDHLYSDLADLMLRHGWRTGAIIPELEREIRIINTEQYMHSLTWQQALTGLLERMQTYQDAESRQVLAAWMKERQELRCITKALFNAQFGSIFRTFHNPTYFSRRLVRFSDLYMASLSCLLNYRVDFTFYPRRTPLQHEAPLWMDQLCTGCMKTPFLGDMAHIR

[3] = molecular target: epidermal growth factor receptor (EGFR) (human (endogenous in MHCC97H and PLC/RLF/5)) (UniProt P00533); assay: co-IP; endogenous proteins in PLC/RLF/5 lysate; anti-NT5DC2 or anti-EGFR antibody with protein A beads, IgG as control; western blot

binding [1]: binds
binding [2]: binds
Molecule: epidermal growth factor receptor (EGFR) (from UniProt P00533 25-1210)

binding [3]: binds
B1: endogenous NT5DC2 (protein, UniProt Q9H857 1-520)
chain: T1 sequence
